Experimental findings from patent US9591855B2, “Diindol-3-ylmethanes as potent non-toxic antifouling compounds” (Hong Kong University of Science and Technology, priority 2014, dated 2017) are described below.

This series relates to Balanus amphitrite cypris larvae.
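Also: larvae held in 24-well plates with compound in seawater, dark, 48 h, settled larvae (attached plus metamorphosed) and dead or missing larvae counted microscopically as percent of total per well.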

`c1ccc2c(Cc3c[nH]c4ccccc34)c[nH]c2c1` [Compound 1, di(1H-indol-3-yl)methane] came in with an LC50/EC50 of more than 53. With `CC(c1c[nH]c2ccccc12)c1c[nH]c2ccccc12` [Compound 2, vibrindole A] the figure was more than 34.

For the compound `OCC(O)C(c1c[nH]c2ccccc12)c1c[nH]c2ccccc12` (stereo not drawn) [Compound 3, 3,3′-di-1H-indol-3-yl-1,2-propandiol], the LC50/EC50 is more than 17.

Turning to `O=C(c1c[nH]c2ccccc12)C(c1c[nH]c2ccccc12)c1c[nH]c2ccccc12` [Compound 5, 1,2,2-tri(1H-indol-3-yl) ethanone], the LC50/EC50 was more than 30. With `c1ccc(C(c2c[nH]c3ccccc23)c2c[nH]c3ccccc23)cc1` [Compound 7, 3,3′-(phenylmethylene) bis-1H-indole] the figure was more than 42; with `Oc1ccc(C(c2c[nH]c3ccccc23)c2c[nH]c3ccccc23)cc1` [Compound 8, 4-(di(1H-indol-3-yl)methyl) phenol], more than 70; with `CC(=O)Oc1ccc(C(c2c[nH]c3ccccc23)c2c[nH]c3ccccc23)cc1` [Compound 9, 4-[di(1H-indol-3-yl)methyl]phenyl acetate], more than 28. In the case of `c1ccc2[nH]ccc2c1` [Indole, indole, reference compound] it was 4.72; in that of arsindoline A [Compound 6], more than 26.
